Measurements: publication doi:10.1101/2022.11.14.515780
These are yes or no findings as the source states them, for the method shown. In cells and extracts the contact can be indirect. These calls come from enrichment with a bait or labelling near it, and not all partners need be listed. Tags and fused reporters may be left off the sequences shown.

Target: T1, GxcM-GFP (Dictyostelium discoideum) (UniProt Q1ZXN6)
T1 sequence: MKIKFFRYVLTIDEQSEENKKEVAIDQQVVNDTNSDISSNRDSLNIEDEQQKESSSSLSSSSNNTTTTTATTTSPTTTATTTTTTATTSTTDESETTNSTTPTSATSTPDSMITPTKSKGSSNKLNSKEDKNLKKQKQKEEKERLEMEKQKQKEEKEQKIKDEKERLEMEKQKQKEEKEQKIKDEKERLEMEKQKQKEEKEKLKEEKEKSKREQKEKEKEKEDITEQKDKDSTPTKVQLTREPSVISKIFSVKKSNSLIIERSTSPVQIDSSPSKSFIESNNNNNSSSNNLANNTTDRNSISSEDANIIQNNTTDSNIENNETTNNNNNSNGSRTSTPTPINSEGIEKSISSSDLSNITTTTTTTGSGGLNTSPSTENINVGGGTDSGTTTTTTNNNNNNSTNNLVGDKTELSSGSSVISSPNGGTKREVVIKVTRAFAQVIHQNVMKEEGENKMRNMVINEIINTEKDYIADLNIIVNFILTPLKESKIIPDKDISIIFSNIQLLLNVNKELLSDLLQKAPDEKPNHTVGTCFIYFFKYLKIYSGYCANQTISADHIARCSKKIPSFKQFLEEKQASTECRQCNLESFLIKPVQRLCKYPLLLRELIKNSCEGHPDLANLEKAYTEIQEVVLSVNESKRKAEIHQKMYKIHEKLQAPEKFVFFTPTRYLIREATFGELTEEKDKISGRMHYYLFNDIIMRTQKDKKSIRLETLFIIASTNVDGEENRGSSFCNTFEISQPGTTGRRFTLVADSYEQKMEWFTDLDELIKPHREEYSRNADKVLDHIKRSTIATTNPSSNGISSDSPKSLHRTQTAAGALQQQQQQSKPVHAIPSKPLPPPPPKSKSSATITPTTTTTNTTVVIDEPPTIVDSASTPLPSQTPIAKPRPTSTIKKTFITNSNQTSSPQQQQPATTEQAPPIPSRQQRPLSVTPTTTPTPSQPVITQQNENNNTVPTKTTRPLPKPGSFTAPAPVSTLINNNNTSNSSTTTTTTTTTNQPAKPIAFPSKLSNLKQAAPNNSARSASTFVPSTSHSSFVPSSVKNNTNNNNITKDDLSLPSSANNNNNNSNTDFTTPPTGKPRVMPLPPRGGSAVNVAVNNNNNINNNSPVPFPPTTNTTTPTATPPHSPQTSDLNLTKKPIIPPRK
Assay: affinity purification with mass spectrometry

binding: binds
Substance: Fbp17 (SH3 domain-containing protein, gene ID DDB_G0271812) (from UniProt Q55AN3)
